Results from paper PMC7878923.

Amino acid sequences for entries named in this document (tags omitted). A change or cut given only in a name is not applied to a line headed by its entry.
UniProt O65655: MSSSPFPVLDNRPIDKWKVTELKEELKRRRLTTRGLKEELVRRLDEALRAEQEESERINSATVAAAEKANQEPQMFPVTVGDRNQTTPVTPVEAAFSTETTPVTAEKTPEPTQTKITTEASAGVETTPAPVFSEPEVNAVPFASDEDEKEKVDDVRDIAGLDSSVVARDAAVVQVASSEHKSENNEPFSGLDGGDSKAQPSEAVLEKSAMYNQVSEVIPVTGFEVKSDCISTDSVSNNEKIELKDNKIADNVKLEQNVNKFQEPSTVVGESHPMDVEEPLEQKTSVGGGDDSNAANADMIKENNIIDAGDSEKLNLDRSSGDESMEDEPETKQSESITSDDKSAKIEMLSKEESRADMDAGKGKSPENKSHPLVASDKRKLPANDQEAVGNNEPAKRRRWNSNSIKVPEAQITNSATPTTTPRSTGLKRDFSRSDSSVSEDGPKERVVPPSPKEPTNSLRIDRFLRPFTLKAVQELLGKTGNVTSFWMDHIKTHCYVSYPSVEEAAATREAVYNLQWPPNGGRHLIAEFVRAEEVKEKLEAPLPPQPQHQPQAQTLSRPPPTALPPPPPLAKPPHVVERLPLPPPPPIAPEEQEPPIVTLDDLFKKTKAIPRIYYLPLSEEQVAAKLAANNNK
UniProt Q9SSD2: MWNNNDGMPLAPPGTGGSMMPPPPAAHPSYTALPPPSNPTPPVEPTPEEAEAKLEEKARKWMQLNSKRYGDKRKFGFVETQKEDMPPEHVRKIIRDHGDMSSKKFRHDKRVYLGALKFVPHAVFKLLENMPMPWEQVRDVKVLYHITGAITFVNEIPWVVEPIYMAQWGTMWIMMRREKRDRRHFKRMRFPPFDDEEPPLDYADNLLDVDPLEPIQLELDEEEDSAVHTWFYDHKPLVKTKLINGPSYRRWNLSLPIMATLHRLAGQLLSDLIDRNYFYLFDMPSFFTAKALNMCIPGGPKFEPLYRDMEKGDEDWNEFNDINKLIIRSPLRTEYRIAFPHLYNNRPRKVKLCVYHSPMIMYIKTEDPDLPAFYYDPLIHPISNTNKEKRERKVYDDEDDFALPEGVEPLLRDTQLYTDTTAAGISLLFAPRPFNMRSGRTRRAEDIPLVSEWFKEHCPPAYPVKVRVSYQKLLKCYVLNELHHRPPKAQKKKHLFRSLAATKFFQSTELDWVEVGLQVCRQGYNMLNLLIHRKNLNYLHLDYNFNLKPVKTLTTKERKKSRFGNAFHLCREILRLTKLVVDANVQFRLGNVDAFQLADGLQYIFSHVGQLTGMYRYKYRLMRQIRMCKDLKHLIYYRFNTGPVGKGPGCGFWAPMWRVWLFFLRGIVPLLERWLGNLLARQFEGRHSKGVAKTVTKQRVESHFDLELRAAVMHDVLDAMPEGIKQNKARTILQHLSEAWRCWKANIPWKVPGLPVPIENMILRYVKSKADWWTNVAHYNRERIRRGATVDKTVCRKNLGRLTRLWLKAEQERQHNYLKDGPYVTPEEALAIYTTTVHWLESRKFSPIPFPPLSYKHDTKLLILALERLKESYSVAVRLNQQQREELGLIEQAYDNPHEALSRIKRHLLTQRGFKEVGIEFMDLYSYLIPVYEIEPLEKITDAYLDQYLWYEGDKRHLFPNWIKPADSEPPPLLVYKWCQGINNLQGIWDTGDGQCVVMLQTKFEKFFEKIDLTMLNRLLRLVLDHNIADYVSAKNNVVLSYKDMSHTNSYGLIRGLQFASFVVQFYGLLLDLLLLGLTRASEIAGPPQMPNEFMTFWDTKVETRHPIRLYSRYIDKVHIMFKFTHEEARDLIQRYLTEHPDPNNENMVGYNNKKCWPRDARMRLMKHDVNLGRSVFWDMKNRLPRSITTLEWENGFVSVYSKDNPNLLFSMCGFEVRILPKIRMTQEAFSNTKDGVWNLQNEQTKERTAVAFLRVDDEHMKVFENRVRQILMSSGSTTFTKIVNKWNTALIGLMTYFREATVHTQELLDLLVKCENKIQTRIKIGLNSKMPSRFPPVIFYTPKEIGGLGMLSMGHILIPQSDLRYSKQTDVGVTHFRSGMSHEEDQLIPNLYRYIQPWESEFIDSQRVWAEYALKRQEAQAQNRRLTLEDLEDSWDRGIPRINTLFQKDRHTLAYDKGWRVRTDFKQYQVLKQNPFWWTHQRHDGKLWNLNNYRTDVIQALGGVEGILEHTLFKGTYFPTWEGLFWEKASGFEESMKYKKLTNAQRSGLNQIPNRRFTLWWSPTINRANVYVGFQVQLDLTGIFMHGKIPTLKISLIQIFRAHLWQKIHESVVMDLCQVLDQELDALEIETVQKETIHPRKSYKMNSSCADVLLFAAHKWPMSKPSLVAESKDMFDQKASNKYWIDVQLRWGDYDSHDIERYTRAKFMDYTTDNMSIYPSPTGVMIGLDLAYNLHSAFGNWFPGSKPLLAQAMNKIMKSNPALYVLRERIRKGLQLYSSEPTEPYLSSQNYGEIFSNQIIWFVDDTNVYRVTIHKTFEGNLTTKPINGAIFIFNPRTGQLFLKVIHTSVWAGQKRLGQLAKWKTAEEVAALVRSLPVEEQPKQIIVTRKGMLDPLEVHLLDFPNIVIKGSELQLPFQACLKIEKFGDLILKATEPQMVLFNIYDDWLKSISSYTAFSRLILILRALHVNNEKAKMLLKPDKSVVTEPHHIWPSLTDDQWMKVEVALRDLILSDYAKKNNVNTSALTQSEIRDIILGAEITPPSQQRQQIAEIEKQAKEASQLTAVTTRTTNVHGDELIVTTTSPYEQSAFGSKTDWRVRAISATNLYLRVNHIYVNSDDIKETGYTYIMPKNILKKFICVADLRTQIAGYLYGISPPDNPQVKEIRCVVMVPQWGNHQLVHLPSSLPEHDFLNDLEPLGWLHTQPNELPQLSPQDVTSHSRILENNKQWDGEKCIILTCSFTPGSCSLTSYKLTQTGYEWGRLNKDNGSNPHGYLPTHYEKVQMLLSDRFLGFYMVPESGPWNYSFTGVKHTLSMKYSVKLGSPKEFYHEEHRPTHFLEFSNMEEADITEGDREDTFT

Key:
[1] = molecular target: AtACINUS-GFP (Arabidopsis thaliana) (UniProt O65655); test: affinity purification with mass spectrometry; label-free IP-MS: extracts of 7-day-old AtACINUS-GFP/acinus-2 seedlings; modified LaG16-LaG2 anti-GFP nanobody on Dynabeads, 3 h at 4 °C; MOPS buffer pH 7.6, 150 mmol/L NaCl, 1% Triton X-100, 20 µmol/L PUGNAc; enrichment against TAP-GFP control (FDR = 0.01, S0 = 2); three biological replicates
[2] = molecular target: AtACINUS (Arabidopsis thaliana (endogenous in seedlings)); test: affinity purification with mass spectrometry; SILIA (15N) quantitative IP-MS: extracts of 2-week-old WT and acinus-2 seedlings; anti-AtACINUS antibody 1 h at 4 °C, then protein A agarose beads; MOPS buffer pH 7.6, 150 mmol/L NaCl, 1% Triton X-100; enrichment in WT against acinus-2; two replicates with switched labels
[3] = molecular target: AtACINUS-GFP (Arabidopsis thaliana) (UniProt O65655); test: affinity purification with mass spectrometry; label-free IP-MS: extracts of 7-day-old AtACINUS-GFP/acinus-2 seedlings; modified LaG16-LaG2 anti-GFP nanobody on Dynabeads, 3 h at 4 °C; MOPS buffer pH 7.6, 150 mmol/L NaCl, 1% Triton X-100, 20 µmol/L PUGNAc; enrichment against TAP-GFP control (FDR = 0.01, S0 = 2); three biological replicates; remark: listed apart in the source

binding [1] | binding [2] | binding [3] | Molecule
binds | – | – | PRP8 (from UniProt Q9SSD2 1-2359)
– | no binding | no binding | SECRET AGENT (SEC) (enzyme, UniProt Q9M8Y0 1-977) MISSKNGAAMISRPVFLSDRVDEVFSRKLDLSVSSSSSSSLLQQFNKTHEGDDDARLALAHQLYKGGDFKQALEHSNMVYQRNPLRTDNLLLIGAIYYQLQEYDMCIARNEEALRIQPQFAECYGNMANAWKEKGDTDRAIRYYLIAIELRPNFADAWSNLASAYMRKGRLSEATQCCQQALSLNPLLVDAHSNLGNLMKAQGLIHEAYSCYLEAVRIQPTFAIAWSNLAGLFMESGDLNRALQYYKEAVKLKPAFPDAYLNLGNVYKALGRPTEAIMCYQHALQMRPNSAMAFGNIASIYYEQGQLDLAIRHYKQALSRDPRFLEAYNNLGNALKDIGRVDEAVRCYNQCLALQPNHPQAMANLGNIYMEWNMMGPASSLFKATLAVTTGLSAPFNNLAIIYKQQGNYSDAISCYNEVLRIDPLAADALVNRGNTYKEIGRVTEAIQDYMHAINFRPTMAEAHANLASAYKDSGHVEAAITSYKQALLLRPDFPEATCNLLHTLQCVCCWEDRSKMFAEVESIIRRQINMSVLPSVQPFHAIAYPIDPILALEISRKYAAHCSIIASRFGLPPFTHPAGLPVKREGGFKRLRIGYVSSDFGNHPLSHLMGSVFGMHNRENVEVFCYALSANDNTEWRQRIQSEAEHFLDVSAMSSDAIAKIINQDKIQILINLNGYTKGARNEIFAMQPAPIQVSYMGFPGTTGATYIDYLVTDEFVSPLQYAHIYSEKLVHLPHCYFVNDYKQKNQDVLDPNSKPKRSDYGLPEDKFIFACFNQLYKMDPEIVNTWCNILKRVPNSALWLLRFPAAGEMRFRTYAAAQGVQPDQIIFTDVAMKSEHIRRSVLADVILDTPLCNGHTTGTDVLWAGVPMITLPLEKMATRVAGSLCLATGLGHGMIVNSLEEYEEKAVSLALNKPKLQALTKELRASRLTCPLFDTMRWVKNLERSYFKMWNLHCSGQQPQHFKVLENDLEFPHDR
– | binds | binds | MAC3B (protein, UniProt O22785 1-525) MNCAISGEVPVEPVVSTKSGLLFERRLIERHISDYGKCPVTGEPLTIDDIVPIKTGEIIKPKTLHTASIPGLLGTFQNEWDGLMLSNFALEQQLHTARQELSHALYQHDSACRVIARLKKERDEARQLLAEVERHIPAAPEAVTANAALSNGKRAAVDEELGPDAKKLCPGISAEIITELTDCNAALSQKRKKRQIPQTLASIDTLERFTQLSSHPLHKTNKPGICSMDILHSKDVIATGGVDATAVLFDRPSGQILSTLTGHSKKVTSVKFVGDSDLVLTASADKTVRIWRNPGDGNYACGYTLNDHSAEVRAVTVHPTNKYFVSASLDGTWCFYDLSSGSCLAQVSDDSKNVDYTAAAFHPDGLILGTGTSQSVVKIWDVKSQANVAKFDGHTGEVTAISFSENGYFLATAAEDGVRLWDLRKLRNFKSFLSADANSVEFDPSGSYLGIAASDIKVYQTASVKAEWNLIKTLPDLSGTGKATCVKFGSDAQYVAVGSMDRNLRIFGLPGDEKANVDDDSAQDS
– | binds | binds | SKIP (protein, UniProt O80653 1-613) MKSLNDLPAPKSTTTTYYDHSNDAWFKNRVTESETVKSSSIKFKVVPAYLNRQGLRPKNPEDFGDGGAFPEIHLPQYPLLMGKNKSNKPGAKTLPVTVDAQGNVVFDAIVRQNENSRKIVYSQHKDIIPKFLKNEGDLGTVVDEEEELQKEIQETAEETKAAIEKIVNVRLSAAQPSNIARQSGDSQYIKYKPSQQSSAFNSGAKERIIRMVEMPVDPLDPPKFKHKRVPRASGSPPVPVMHSPPRPVTVKDQQDWKIPPCISNWKNPKGYTIPLDKRLAADGRGLQDVQINDNFAKLSEALYVAEQKAREAVSMRSKVQKEMVMKDKERKEQELRALAQKARSERTGAAMSMPVSSDRGRSESVDPRGDYDNYDQDRGREREREEPQETREEREKRIQREKIREERRRERERERRLDAKDAAMGKKSKITRDRDRDISEKVALGMASTGGKGGGEVMYDQRLFNQDKGMDSGFAADDQYNLYDKGLFTAQPTLSTLYKPKKDNDEEMYGNADEQLDKIKNTERFKPDKAFTGASERVGSKRDRPVEFEKEEEQDPFGLEKWVSDLKKGKKPLDKIGSGGTMRASGGGGSSSRDDDHGGSGRTKINFERSDRR
– | binds | binds | MAC3A (protein, UniProt Q94BR4 1-523) MNCAISGEVPEEPVVSKKSGLLYEKRLIQTHISDYGKCPVTGEPHTLDDIVPIKTGKIVKPKPLHTASIPGLLGTFQTEWDSLMLSNFALEQQLHTARQELSHALYQHDAACRVIARLKKERDESRQLLAEAERQLPAAPEVATSNAALSNGKRGIDDGEQGPNAKKMRLGISAEVITELTDCNAALSQQRKKRQIPKTLASVDALEKFTQLSSHPLHKTNKPGIFSMDILHSKDVIATGGIDTTAVLFDRPSGQILSTLTGHSKKVTSIKFVGDTDLVLTASSDKTVRIWGCSEDGNYTSRHTLKDHSAEVRAVTVHATNKYFVSASLDSTWCFYDLSSGLCLAQVTDASENDVNYTAAAFHPDGLILGTGTAQSIVKIWDVKSQANVAKFGGHNGEITSISFSENGYFLATAALDGVRLWDLRKLKNFRTFDFPDANSVEFDHSGSYLGIAASDIRVFQAASVKAEWNPIKTLPDLSGTGKATSVKFGLDSKYIAVGSMDRNLRIFGLPDDDNTEDSAQDS
– | no binding | no binding | SPINDLY (SPY) (enzyme, UniProt Q96301 1-914) MVGLEDDTERERSPVVENGFSNGSRSSSSSAGVLSPSRKVTQGNDTLSYANILRARNKFADALALYEAMLEKDSKNVEAHIGKGICLQTQNKGNLAFDCFSEAIRLDPHNACALTHCGILHKEEGRLVEAAESYQKALMADASYKPAAECLAIVLTDLGTSLKLAGNTQEGIQKYYEALKIDPHYAPAYYNLGVVYSEMMQYDNALSCYEKAALERPMYAEAYCNMGVIYKNRGDLEMAITCYERCLAVSPNFEIAKNNMAIALTDLGTKVKLEGDVTQGVAYYKKALYYNWHYADAMYNLGVAYGEMLKFDMAIVFYELAFHFNPHCAEACNNLGVLYKDRDNLDKAVECYQMALSIKPNFAQSLNNLGVVYTVQGKMDAAASMIEKAILANPTYAEAFNNLGVLYRDAGNITMAIDAYEECLKIDPDSRNAGQNRLLAMNYINEGLDDKLFEAHRDWGWRFTRLHPQYTSWDNLKDPERPITIGYISPDFFTHSVSYFIEAPLTHHDYTKYKVVVYSAVVKADAKTYRFRDKVLKKGGVWKDIYGIDEKKIASMVREDKIDILVELTGHTANNKLGTMACRPAPVQVTWIGYPNTTGLPTVDYRITDSLADPPDTKQKQVEELVRLPDCFLCYTPSPEAGPVCPTPALSNGFVTFGSFNNLAKITPKVLQVWARILCAVPNSRLVVKCKPFCCDSIRQRFLTTLEQLGLESKRVDLLPLILFNHDHMQAYSLMDISLDTFPYAGTTTTCESLYMGVPCVTMAGSVHAHNVGVSLLTKVGLGHLVAKNEDEYVQLSVDLASDVTALSKLRMSLRDLMAGSPVCNGPSFAVGLESAYRNMWKKYCKGEVPSLRRMEMLQKEVHDDPLISKDLGPSRVSVTGEATPSLKANGSAPVPSSLPTQSPQLSKRMDSTS

Like-named read-outs stand apart in the source and are kept apart here. Results are given in words; binding and its absence hold for the method and conditions named. In cells and extracts the contact can be indirect. A yes stands for co-enrichment or nearness to the bait. Other partners may have been found. For some assays here: A no says only that the protein was not detected with the bait.
